Among the data in paper PMC9091212 are binding values, retold here.

Amino acid sequences for entries named in this document (tags omitted).
UniProt Q05397: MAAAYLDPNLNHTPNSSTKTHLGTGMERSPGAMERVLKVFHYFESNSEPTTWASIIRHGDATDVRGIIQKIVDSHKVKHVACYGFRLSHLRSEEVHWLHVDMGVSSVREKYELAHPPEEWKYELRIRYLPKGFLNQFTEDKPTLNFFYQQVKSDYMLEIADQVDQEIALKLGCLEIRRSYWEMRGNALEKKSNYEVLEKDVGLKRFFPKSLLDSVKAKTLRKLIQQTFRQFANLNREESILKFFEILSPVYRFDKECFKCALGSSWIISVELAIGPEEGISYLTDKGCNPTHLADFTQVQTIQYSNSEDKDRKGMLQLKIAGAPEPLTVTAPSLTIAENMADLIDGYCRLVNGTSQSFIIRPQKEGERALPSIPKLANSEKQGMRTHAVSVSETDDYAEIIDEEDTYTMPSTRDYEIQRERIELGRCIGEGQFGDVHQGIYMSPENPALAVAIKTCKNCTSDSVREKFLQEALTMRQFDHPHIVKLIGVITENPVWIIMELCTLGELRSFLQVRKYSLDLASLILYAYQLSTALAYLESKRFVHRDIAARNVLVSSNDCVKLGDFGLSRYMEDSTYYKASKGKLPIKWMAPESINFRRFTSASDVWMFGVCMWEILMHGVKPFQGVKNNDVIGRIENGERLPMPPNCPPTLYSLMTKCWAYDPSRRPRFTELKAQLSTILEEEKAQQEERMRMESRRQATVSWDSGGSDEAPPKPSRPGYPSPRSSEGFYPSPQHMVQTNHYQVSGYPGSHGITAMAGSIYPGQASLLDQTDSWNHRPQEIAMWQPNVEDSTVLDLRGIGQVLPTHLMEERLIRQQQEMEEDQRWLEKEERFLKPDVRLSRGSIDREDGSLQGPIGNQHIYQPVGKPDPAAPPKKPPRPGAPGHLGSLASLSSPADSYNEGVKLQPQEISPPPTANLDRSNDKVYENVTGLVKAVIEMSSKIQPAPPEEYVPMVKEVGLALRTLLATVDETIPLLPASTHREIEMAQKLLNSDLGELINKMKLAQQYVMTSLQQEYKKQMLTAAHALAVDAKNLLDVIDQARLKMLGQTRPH
UniProt P05556: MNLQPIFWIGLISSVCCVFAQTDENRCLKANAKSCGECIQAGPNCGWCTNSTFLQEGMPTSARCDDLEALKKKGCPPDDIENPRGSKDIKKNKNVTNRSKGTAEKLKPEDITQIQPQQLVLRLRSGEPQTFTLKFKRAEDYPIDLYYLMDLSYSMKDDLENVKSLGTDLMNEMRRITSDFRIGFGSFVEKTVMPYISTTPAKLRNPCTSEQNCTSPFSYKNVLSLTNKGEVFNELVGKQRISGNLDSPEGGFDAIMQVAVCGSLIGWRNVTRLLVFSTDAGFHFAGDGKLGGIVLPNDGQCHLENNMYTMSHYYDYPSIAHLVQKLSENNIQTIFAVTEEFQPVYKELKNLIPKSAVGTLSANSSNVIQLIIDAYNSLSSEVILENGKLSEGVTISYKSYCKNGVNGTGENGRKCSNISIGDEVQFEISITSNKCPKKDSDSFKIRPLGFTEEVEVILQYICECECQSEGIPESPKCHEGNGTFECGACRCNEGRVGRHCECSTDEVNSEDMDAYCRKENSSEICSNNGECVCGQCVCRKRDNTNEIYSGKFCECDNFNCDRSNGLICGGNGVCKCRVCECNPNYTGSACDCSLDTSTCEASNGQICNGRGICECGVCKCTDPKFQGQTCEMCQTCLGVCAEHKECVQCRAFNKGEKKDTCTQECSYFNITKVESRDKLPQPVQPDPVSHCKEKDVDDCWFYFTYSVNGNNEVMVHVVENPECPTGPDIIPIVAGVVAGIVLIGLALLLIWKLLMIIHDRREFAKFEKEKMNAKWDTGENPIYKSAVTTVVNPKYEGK

Results are given in words; binding and its absence hold for the method and conditions named. In cells and extracts the contact can be indirect. Some results given as binding are weak or reduced against the parent protein; the word gives no strength.

For test [1], the target named is focal adhesion kinase (FAK) (human (endogenous in MDA-MB-231)) (UniProt Q05397). Description: co-IP; IP of endogenous FAK from lysates of MDA-MB-231 cells treated with vehicle or TGFβ (5 ng/mL, 2 h), or with vehicle or the FAKi VS-4718 (1 μM, 24 h); western blotting for FAK, TGFβRI and TGFβRII; lysis buffer 1% Triton X-100, 0.5% NP-40, 150 mM NaCl, 10 mM Tris pH 7.4; protein G agarose. (A western blot detects proteins with antibodies after separation by electrophoresis.)

Test [2] deals with integrin β1 (human (endogenous in MDA-MB-231)) (UniProt P05556). Description: co-IP; IP of endogenous integrin β1 with western blotting of TGFβRI, and reverse IP of TGFβRI with western blotting of integrin β1, from MDA-MB-231 lysates; also from untreated cells (without TGFβ) and with FAK inhibitor treatment.

B1: TGFβ receptor type I (TGFβRI) (receptor, UniProt P36897 34-503)
chain: LQCFCHLCTKDNFTCVTDGLCFVSVTETTDKVIHNSMCIAEIDLIPRDRPFVCAPSSKTGSVTTTYCCNQDHCNKIELPTTVKSSPGLGPVELAAVIAGPVCFVCISLMLMVYICHNRTVIHHRVPNEEDPSLDRPFISEGTTLKDLIYDMTTSGSGSGLPLLVQRTIARTIVLQESIGKGRFGEVWRGKWRGEEVAVKIFSSREERSWFREAEIYQTVMLRHENILGFIAADNKDNGTWTQLWLVSDYHEHGSLFDYLNRYTVTVEGMIKLALSTASGLAHLHMEIVGTQGKPAIAHRDLKSKNILVKKNGTCCIADLGLAVRHDSATDTIDIAPNHRVGTKRYMAPEVLDDSINMKHFESFKRADIYAMGLVFWEIARRCSIGGIHEDYQLPYYDLVPSDPSVEEMRKVVCEQKLRPNIPNRWQSCEALRVMAKIMRECWYANGAARLTALRIKKTLSQLSQQEGIKM
Consider B1, for which the binding entry in test [1] and in test [2] was “binds” throughout.
